Laboratory results reported in PubChem BioAssay AID1259415 (National Center for Advancing Translational Sciences (NCATS), 2018).
Screen size: about 410,000 compounds; about 18,000 (4.4%) were called active. The inconclusive results got no clear call from the source; some entries with a clear call stand among them for comparison. No stated cut-off is given here; in the data, active means activity change below about -60%; inconclusive means no clear call, values can overlap the other calls; inactive means above about -39%. A structure can be active in one record and inactive in another.

assay: qHTS Assay for inhibitors of the human cytomegalovirus (HCMV); conditions: HFF cells, HCMV-luciferase reporter, 72 h; at 57.5 µM; active compounds read low
How it was run: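 Two-dose cell screen: HFF monolayers treated with compounds and infected with luciferase-expressing HCMV at 1 PFU/cell, 72 h at 37C, then lysed for luciferase measurement.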
On the % scale 0 is the no-effect control and ±100 the full control effect.

SMILES | activity change, negative = inhibition
CSC1=NC(C(Cl)(Cl)Cl)N=C(c2ccc(C)cc2)N1 (stereo unspecified) | active: -71.2%
COc1cc([N+](=O)[O-])ccc1NC(=O)N1CCCCCC1 | inconclusive: -41%
COc1cc(CNc2ccc(S(N)(=O)=O)cc2)ccc1OCc1ccccc1F | inconclusive: -52.7%
Cn1c(SCc2cccc([N+](=O)[O-])c2)nc2c(c1=O)SCC2 | active: -72%
CCCNC(=O)c1nnsc1S(=O)(=O)c1ccc(Cl)cc1 | active: -99.1%
CC(=O)Nc1ccc(C(=O)N/N=C(\C)CC(=O)Nc2ccc(OCc3ccccc3)cc2)cc1 | inactive: -18.7%
O=C(c1ccnc(Cl)c1)N1CCCC(N2CCN(c3ccccc3F)CC2)C1 (stereo unspecified) | inconclusive: -55.2%
CCOC(=O)C1(Cc2ccccc2)CCCN(CCCn2cccn2)C1 (stereo unspecified) | inactive: -29.7%
Cc1cccc(N2CCN(C(=O)c3cc4ccc5cccnc5c4[nH]3)CC2)c1C | inactive: 1.87%
S=C(NCc1ccccc1)NCc1ccccc1 | inconclusive: -48%
O=C(Cc1ccc(F)cc1)N1CCN=C1SCc1ccc([N+](=O)[O-])cc1 | active: -68.2%
COC(=O)/C=C1\NCCNC1=O | inconclusive: -41.9%
COCCn1c(C)cc(O)c(C(c2ccccc2)N2CCCCC2)c1=O (stereo unspecified) | inconclusive: -49%
CN(C)c1cccc(C(=O)N2CCCC(CCC(=O)N3CCN(c4ccccn4)CC3)C2)c1 (stereo unspecified) | inconclusive: -54.8%
FC(F)(F)c1cccc(Nc2nc(N3CCCC3)nc(N3CCCC3)n2)c1 | inconclusive: -54.8%
Cc1c(C(=O)NCCn2ccc3ccccc32)cccc1[N+](=O)[O-] | inactive: -18.6%
O=C(C1=C[C@H](c2ccc(C(F)(F)F)cc2)C[C@H](OCCCCO)O1)N1CCN(Cc2ccc3c(c2)OCO3)CC1 | inactive: -6.12%
Cc1nc(C(F)(F)F)ccc1C(=O)Nc1ccccc1F | inactive: -0.944%
CCC(=O)N1CCc2cc(Br)cc(S(=O)(=O)CCC(=O)NCC3CCCO3)c21 (stereo unspecified) | active: -109%

SMILES | activity change, negative = inhibition
Cc1ccc(C(=O)N/N=C\c2ccc([N+](=O)[O-])s2)cn1 | inconclusive: -45.2%
O=C(COC(=O)Cc1ccccc1[N+](=O)[O-])NCc1ccc(F)cc1 | inconclusive: -48.8%
CCCC(=O)N1c2nc(-c3ccco3)nn2C2(CCCCC2)[C@@H]2CCCC[C@@H]21 | inconclusive: -40.2%
COc1cccc(NC(=O)Cn2c(=O)n(-c3ccc(C)cc3)c(=O)c3ccccc32)c1 | inconclusive: -59.8%
N#Cc1c(Nc2ccccc2)sc(C(=O)c2ccccc2)c1N | inactive: -28%
Cc1cccc(NC(=O)c2nc[nH]c2C(=O)N[C@@H](C)CO)c1 | inactive: -37%
CCOC(=O)c1[nH]ncc1CN1CCCC(C(=O)c2ccc(SC)cc2)C1 (stereo unspecified) | inconclusive: -49.2%
O=c1[nH]c2cc(Cl)ccc2c(O)c1-c1cccc(Oc2ccccc2)c1 | inconclusive: -48.8%
COc1cc(C(=O)NCc2nc(C)cs2)ccc1OC1CCN(C(C)=O)CC1 | inconclusive: -50.8%
CCOC(=O)C1C(=O)C=C(c2cccs2)CC1c1ccccc1 (stereo unspecified) | inconclusive: -41.4%
O=C(c1ccc(Br)o1)N1N=C(c2ccc(Cl)cc2)CC1c1ccco1 (stereo unspecified) | inconclusive: -51%
NC(N)=NS(=O)(=O)c1ccc(NC(=S)NC(=O)c2ccc3c(c2)OCO3)cc1 | inactive: -32.6%
Cc1ccc(S(=O)(=O)NCc2ccncc2)cc1 | inconclusive: -47.8%
COC(=O)c1cc2sccc2n1Cc1c(C)cc(C)cc1C | inactive: 15%
C=CCc1cc(C)ccc1OCCOCCn1ccnc1 | active: -63.2%
COc1ccc(-c2nc3c(c(=O)[nH]c(=O)n3Cc3ccccc3)n2Cc2ccccc2)cc1 | inconclusive: -50.2%
CC(=O)OC1CCC2(C)C3CCC4(C)C(C(C)=O)CCC4C3CC3OC32C1 (stereo unspecified) | active: -61.1%
Cc1ccccc1OCCC(=O)Nc1ccc(Cl)cc1F | inconclusive: -42.4%
CC(=O)Nc1ccc(S(=O)(=O)Nc2cccc(NC(=O)c3ccco3)c2)cc1 | active: -70.8%

Pulled by compound from above, three records:
SMILES | activity change, negative = inhibition
Cc1cccc(NC(=O)c2nc[nH]c2C(=O)N[C@@H](C)CO)c1 | inactive: -37%
Cc1ccc(S(=O)(=O)NCc2ccncc2)cc1 | inconclusive: -47.8%
Cc1ccccc1OCCC(=O)Nc1ccc(Cl)cc1F | inconclusive: -42.4%

(cont.)

SMILES | activity change, negative = inhibition
Cc1ccc(NS(=O)(=O)c2cccc3cccnc23)c(Br)c1 | active: -82.3%
C=C(C)c1cccc(C(C)(C)NC(=O)NC2CCCC2)c1 | inconclusive: -42.5%
Cc1cccc(CSc2nc3ccccc3c(=O)n2C)c1 | active: -75.9%
Cc1cccc(C(=O)NCC(=O)OCc2cc(=O)n3ccsc3n2)c1 | inactive: -20.1%
CCN(CC1CCCN(CCc2cccc(F)c2)C1)C(=O)c1cc2ccccc2o1 (stereo unspecified) | inactive: -33.6%
COc1ccc(Cl)cc1C(=O)OCC(=O)c1ccc[nH]1 | inconclusive: -58.9%
Cc1ccc(Cl)cc1NC(=S)N(CCN(C)C)Cc1cccs1 | inconclusive: -40.1%
CCc1nnc2c(Nc3cc(OC)c(Cl)cc3OC)nc3ccccc3n12 | inactive: 46.6%
COc1ccc(N(CC(=O)N2CCN(c3cccc(Cl)c3)CC2)S(=O)(=O)c2c(C)noc2C)cc1 | active: -67.2%
O=C(CNC(=O)c1ccccc1)OCC(=O)N1N=C(c2ccc(Cl)cc2)CC1c1ccco1 (stereo unspecified) | inactive: 4.86%
Cc1cccn2c(=O)c3cc(C#N)c(=NC(=O)c4cccs4)n(CCCOC(C)C)c3nc12 | inconclusive: -51.8%
COc1ccc2nc(SCC(=O)N(C)C3CCCCC3)[nH]c2c1 | inconclusive: -44.8%
COc1ccccc1N1CCN(/N=C/C=C\c2ccccc2[N+](=O)[O-])CC1 | inactive: 25.5%
Cc1ccc(S(=O)(=O)N2C(=O)CCC2C(=O)N2CCCCC2)cc1 (stereo unspecified) | inactive: 82%
COC(=O)[C@@]1(Cc2ccc(F)cc2)[C@H]2c3cc(C(=O)N4CCCC4)n(Cc4ccc(C)o4)c3C[C@H]2CN1C(=O)c1ccccc1 | inconclusive: -40.4%
Cc1ccc(-c2nc(=O)[nH]c3ccc(Br)cc23)cc1 | inconclusive: -44%
COC(=O)c1cc(C(=O)c2cc(F)ccc2O)cn2c(=O)c3c(C)c(C)sc3nc12 | inconclusive: -51.9%
COc1cccc(OCCCN2CCN(S(=O)(=O)c3ccc(NC(C)=O)cc3)CC2)c1 | active: -80.5%
